Results deposited as PubChem BioAssay AID1224828 (NIAID, 2016)
This is one part, drawn at random, of about 17,000 reagents tested. Of all reagents, 762 (4.5%) got an active call. 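Active calls include both raised and lowered p65 entry, mostly lowered; wells with fewer than 50 cells lack a z-score.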 Raw values are not corrected between plates.

- Screen: 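Find genes required for NF-kappaB p65 moving into the nucleus after LPS in mouse macrophages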 (primary screen)
- Cell system: mouse RAW264.7 G9 macrophage reporter cells (GFP-p65, Tnf promoter-mCherry)
- Reagents: siRNA pool against mouse genes, 100 nM
- Time to read-out: 2 days siRNA transfection, then 40 min LPS before fixation
- Treatment: LPS (Salmonella minnesota R595) at 10 ng/ml
- Measured: 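Imaged p65 nuclear translocation ratio, normalised to the plate median, converted to robust z-scores and averaged across two replicates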
- Reading the numbers: p65 translocation robust z-score: higher = more nuclear NF-kappaB p65 after LPS than the plate median; nuclear/cytoplasmic p65 ratio: higher = more nuclear NF-kappaB p65
- Rule for the call: 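Called active when z exceeds 3.3 or falls under -1.56 (median of Tlr4 controls), giving activity score of at least 50; no calls for control wells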
- Calls: active = hit (p65 shift raised or lowered); inactive = no clear change

For Dlg5, the entry reads p65 translocation robust z-score -0.22; nuclear/cytoplasmic p65 ratio, rep 1 = 1.47; nuclear/cytoplasmic p65 ratio, rep 2 = 1.37; low cell count flag enough cells to score; inactive.
With knock-down of Hoxa4 the results were p65 translocation robust z-score -0.95; nuclear/cytoplasmic p65 ratio, rep 1 = 1.24; nuclear/cytoplasmic p65 ratio, rep 2 = 1.32; low cell count flag enough cells to score; inactive.
Silencing of Ddc resulted in: p65 translocation robust z-score 0.2; nuclear/cytoplasmic p65 ratio, rep 1 = 1.45; nuclear/cytoplasmic p65 ratio, rep 2 = 1.46; low cell count flag enough cells to score; inactive.
Depletion of Slc25a4 resulted in: p65 translocation robust z-score -1.81; nuclear/cytoplasmic p65 ratio, rep 1 = 1.27; nuclear/cytoplasmic p65 ratio, rep 2 = 1.26; low cell count flag enough cells to score; active.
Knock-down of Slc35f3 came out at: nuclear/cytoplasmic p65 ratio, rep 1 = 1.69; nuclear/cytoplasmic p65 ratio, rep 2 = 1.09; low cell count flag fewer than 50 cells per well; well left out of scoring; inactive.
With knock-down of Ptprf, the screen gave p65 translocation robust z-score 2.04; nuclear/cytoplasmic p65 ratio, rep 1 = 1.81; nuclear/cytoplasmic p65 ratio, rep 2 = 1.8; low cell count flag enough cells to score; inactive.
With knock-down of Slc25a29 the results were p65 translocation robust z-score 0.97; nuclear/cytoplasmic p65 ratio, rep 1 = 1.53; nuclear/cytoplasmic p65 ratio, rep 2 = 1.35; low cell count flag enough cells to score; inactive.
Against Ddx21, the values are p65 translocation robust z-score -0.17; nuclear/cytoplasmic p65 ratio, rep 1 = 1.57; nuclear/cytoplasmic p65 ratio, rep 2 = 1.5; low cell count flag enough cells to score; inactive.
Art5 scored p65 translocation robust z-score 1.08; nuclear/cytoplasmic p65 ratio, rep 1 = 1.58; nuclear/cytoplasmic p65 ratio, rep 2 = 1.74; low cell count flag enough cells to score; inactive.
Pcsk4 scored nuclear/cytoplasmic p65 ratio, rep 1 = 1.28; nuclear/cytoplasmic p65 ratio, rep 2 = 1.06; low cell count flag fewer than 50 cells per well; well left out of scoring; inactive.
Myh6 showed p65 translocation robust z-score 0.34; nuclear/cytoplasmic p65 ratio, rep 1 = 1.38; nuclear/cytoplasmic p65 ratio, rep 2 = 1.49; low cell count flag enough cells to score; inactive.
Silencing of AI463229 resulted in: p65 translocation robust z-score 1.22; nuclear/cytoplasmic p65 ratio, rep 1 = 1.6; nuclear/cytoplasmic p65 ratio, rep 2 = 1.71; low cell count flag enough cells to score; inactive.
For Txndc11 the deposit lists nuclear/cytoplasmic p65 ratio, rep 1 = 1.23; nuclear/cytoplasmic p65 ratio, rep 2 = 1.21; low cell count flag fewer than 50 cells per well; well left out of scoring; inactive.
Or5p6 gave p65 translocation robust z-score -1.59; nuclear/cytoplasmic p65 ratio, rep 1 = 1.29; nuclear/cytoplasmic p65 ratio, rep 2 = 1.53; low cell count flag enough cells to score; active.
For Phf13 the deposit lists nuclear/cytoplasmic p65 ratio, rep 1 = 1.4; nuclear/cytoplasmic p65 ratio, rep 2 = 1.85; low cell count flag fewer than 50 cells per well; well left out of scoring; inactive.
Silencing of Jak3 came out at: p65 translocation robust z-score 0.02; nuclear/cytoplasmic p65 ratio, rep 1 = 1.72; nuclear/cytoplasmic p65 ratio, rep 2 = 1.36; low cell count flag enough cells to score; inactive.
Wasl showed p65 translocation robust z-score -0.63; nuclear/cytoplasmic p65 ratio, rep 1 = 1.44; nuclear/cytoplasmic p65 ratio, rep 2 = 1.49; low cell count flag enough cells to score; inactive.
After knock-down of Enpp6 the results were p65 translocation robust z-score 0.36; nuclear/cytoplasmic p65 ratio, rep 1 = 1.63; nuclear/cytoplasmic p65 ratio, rep 2 = 1.36; low cell count flag enough cells to score; inactive.
Limk1 showed p65 translocation robust z-score -1.6; nuclear/cytoplasmic p65 ratio, rep 1 = 1.53; nuclear/cytoplasmic p65 ratio, rep 2 = 1.17; low cell count flag enough cells to score; active.
Silencing of Insr came out at: p65 translocation robust z-score -0.62; nuclear/cytoplasmic p65 ratio, rep 1 = 1.61; nuclear/cytoplasmic p65 ratio, rep 2 = 1.28; low cell count flag enough cells to score; inactive.
For Lrrk1, the values are p65 translocation robust z-score -1.36; nuclear/cytoplasmic p65 ratio, rep 1 = 1.56; nuclear/cytoplasmic p65 ratio, rep 2 = 1.3; low cell count flag enough cells to score; inactive.
Opn3 gave p65 translocation robust z-score 0.8; nuclear/cytoplasmic p65 ratio, rep 1 = 1.55; nuclear/cytoplasmic p65 ratio, rep 2 = 1.78; low cell count flag enough cells to score; inactive.
With knock-down of Mterf3, the record shows p65 translocation robust z-score 0.2; nuclear/cytoplasmic p65 ratio, rep 1 = 1.46; nuclear/cytoplasmic p65 ratio, rep 2 = 1.46; low cell count flag enough cells to score; inactive.
Against Gper1 the deposit lists p65 translocation robust z-score -0.06; nuclear/cytoplasmic p65 ratio, rep 1 = 1.47; nuclear/cytoplasmic p65 ratio, rep 2 = 1.6; low cell count flag enough cells to score; inactive.
Depletion of Toe1 gave: nuclear/cytoplasmic p65 ratio, rep 1 = 1.17; nuclear/cytoplasmic p65 ratio, rep 2 = 2.94; low cell count flag fewer than 50 cells per well; well left out of scoring; inactive.
Against Ube2r2 the deposit lists p65 translocation robust z-score 0.95; nuclear/cytoplasmic p65 ratio, rep 1 = 1.62; nuclear/cytoplasmic p65 ratio, rep 2 = 1.65; low cell count flag enough cells to score; inactive.
After knock-down of Map1a, the screen gave p65 translocation robust z-score -1.52; nuclear/cytoplasmic p65 ratio, rep 1 = 1.24; nuclear/cytoplasmic p65 ratio, rep 2 = 1.16; low cell count flag enough cells to score; inactive.

Entries listed above marked active:
Slc25a4 → p65 translocation robust z-score = -1.81; nuclear/cytoplasmic p65 ratio, rep 1 = 1.27; nuclear/cytoplasmic p65 ratio, rep 2 = 1.26; low cell count flag = enough cells to score; Call = active
Or5p6 → p65 translocation robust z-score = -1.59; nuclear/cytoplasmic p65 ratio, rep 1 = 1.29; nuclear/cytoplasmic p65 ratio, rep 2 = 1.53; low cell count flag = enough cells to score; Call = active
Limk1 → p65 translocation robust z-score = -1.6; nuclear/cytoplasmic p65 ratio, rep 1 = 1.53; nuclear/cytoplasmic p65 ratio, rep 2 = 1.17; low cell count flag = enough cells to score; Call = active
